Test results: patent US5888970 (dated 1999)

Test: general procedure: Boc solid-phase peptide synthesis; Oxime resin (substitution level=0.96 mmol/g or 0.62 mmol/g, Novabiochem); HBTU, TBTU
Conditions: conjugation step, TFA salt

Work on “Cyclo-[D-Val-NMeArg-Gly-Asp-Dap(EOE-Mercaptoacetyl)-Cys(Acm)]” yielded a conjugation yield of 90%.
